{"source": "patent US7655447B2", "about": "“ZSIG33-like polynucleotides” (ZymoGenetics, Inc., priority 2000, dated 2010)", "tested_on": "antral portion of the stomach", "assay": "Gastric contractility: distance between transducing crystals on the antral stomach", "assay_type": "in vivo, Sprague-Dawley rats", "conditions": "10 μl of 1 μM applied topically to the stomach between the crystals, urethane-anesthetized rats", "from_the_text": "Two male Sprague-Dawley rats, approximately 12 weeks old (Harlan, Indianapolis, Ind.) are anesthetized with urethane and their stomachs are exposed through a small abdominal incision. Two 2.4 mm transducing crystals (Sonometrics, Ontario, Canada) are placed on the antral portion of the stomach such that circular contractions could be monitored as a change in the distance between the two crystals. The crystals are attached with VETBOND TISSUE ADHESIVE (3M, St. Paul, Minn.). […] The amplitude of the NE-induced decrease is approximately 50% of the acetylcholine-induced increase in distance. Both responses are transient. A negative control of 10 μl of phosphate buffer solution (PBS) applied topically between the crystals has no effect. […] The ZS33LP at 1 μg induces a sustained, rhythmic increase and decrease in crystal distance.", "note": "At least one compound was matched to its structure with a doubt left.", "data": [{"smiles": "CC(=O)OCC[N+](C)(C)C", "note": "[acetylcholine]", "values": [{"measurement": "change in the distance between the two crystals (circular contractions)", "result": "rapid, but transient increase in the distance between two crystals"}]}]}
